Test results reported in publication PMC11700865.
These are yes or no findings as the source states them, for the method shown. Binding seen in cells or lysates may run through a third protein. Some entries that bind do so weakly or less than the wild type.

Protein sequences, listed by entry. Tags and fused reporters are not part of them.
UniProt P30051: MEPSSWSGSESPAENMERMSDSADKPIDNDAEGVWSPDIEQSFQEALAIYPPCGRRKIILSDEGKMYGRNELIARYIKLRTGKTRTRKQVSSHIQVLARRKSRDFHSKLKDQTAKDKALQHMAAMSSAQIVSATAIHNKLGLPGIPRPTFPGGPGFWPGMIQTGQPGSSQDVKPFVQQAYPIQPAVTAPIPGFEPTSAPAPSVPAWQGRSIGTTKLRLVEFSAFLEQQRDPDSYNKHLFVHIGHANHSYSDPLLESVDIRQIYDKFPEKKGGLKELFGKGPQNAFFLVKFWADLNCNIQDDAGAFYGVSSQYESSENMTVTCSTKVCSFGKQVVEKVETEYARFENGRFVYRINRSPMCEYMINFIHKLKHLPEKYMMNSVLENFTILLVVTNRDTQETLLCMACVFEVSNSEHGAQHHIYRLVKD
UniProt P46938: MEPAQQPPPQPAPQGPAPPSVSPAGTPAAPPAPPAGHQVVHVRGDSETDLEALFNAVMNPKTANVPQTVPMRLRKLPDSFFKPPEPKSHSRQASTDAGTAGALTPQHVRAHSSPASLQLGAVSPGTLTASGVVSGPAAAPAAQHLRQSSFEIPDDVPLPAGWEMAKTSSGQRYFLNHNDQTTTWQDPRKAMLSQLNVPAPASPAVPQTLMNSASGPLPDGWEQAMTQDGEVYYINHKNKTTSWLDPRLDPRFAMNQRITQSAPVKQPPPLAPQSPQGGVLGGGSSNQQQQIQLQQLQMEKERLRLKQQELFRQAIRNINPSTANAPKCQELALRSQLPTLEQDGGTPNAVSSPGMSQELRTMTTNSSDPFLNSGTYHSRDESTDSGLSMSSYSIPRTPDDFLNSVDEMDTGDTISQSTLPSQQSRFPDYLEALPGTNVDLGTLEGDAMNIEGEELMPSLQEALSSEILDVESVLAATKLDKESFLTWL

What was measured:
[1] = target: TEAD1, endogenous in mouse vascular smooth muscle cells (mouse (endogenous in primary mouse VSMCs)) (UniProt P30051); experiment: co-IP; endogenous proteins in VSMC lysates (IP lysis buffer); primary antibody overnight at 4 °C, protein A/G beads 2 h at room temperature, anti-IgG as control, Western blot; anti-YAP antibody for OTUB2/YAP
[2] = target: Yes-associated protein (YAP), endogenous in mouse vascular smooth muscle cells (mouse (endogenous in primary mouse VSMCs)) (UniProt P46938); experiment: co-IP; endogenous proteins in separated nuclear and cytoplasmic protein fractions of VSMCs
[3] = target: Yes-associated protein (YAP), endogenous in mouse vascular smooth muscle cells (mouse (endogenous in primary mouse VSMCs)) (UniProt P46938); experiment: co-IP; endogenous proteins in VSMC lysates (IP lysis buffer); primary antibody overnight at 4 °C, protein A/G beads 2 h at room temperature, anti-IgG as control, Western blot; anti-YAP antibody for OTUB2/YAP

binding [1]	binding [2]	binding [3]	Molecule
binds			Yes-associated protein (YAP), endogenous in mouse vascular smooth muscle cells (from UniProt P46938 1-488)
	binds	binds	Otubain-2 (OTUB2), endogenous in mouse vascular smooth muscle cells (enzyme, UniProt Q9CQX0 1-234) MSETSFNLISEKCDILSILRDHPENRIYQRKIQELSKRFTSIRKTKGDGNCFYRALGYSYLESLLGKSREILKFKERVLQTPNDLLAAGFEEHKFRNFFNAFYSVVELVEKDSSVSSLLKVFNDQSSSDRIVQFLRLLTSAFIRNRADFFRHFIDEEMDIKDFCTHEVEPMAMECDHVQITALSQALNIALQVEYVDEMDTALNHHVFPEAAIPSVYLLYKTSHYNILYAAEKH
